The subject of this test is FaDu. The experiment in a line: mitochondrial oxygen consumption rate normalised to cell number, Z score over the library; higher = higher oxygen consumption (negative = OCR reduction). The following applies: treatment time 24 h, assay medium: 5 mM galactose, 5 mM pyruvate, 4 mM glutamine. As for the experimental part: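 Primary screen: FaDu cells were incubated 24 h with Pharmakon 1600 / TDI oncology set compounds at 2 or 10 uM. Mitochondrial-specific OCR (basal minus 2 uM antimycin A) was measured on a Seahorse XF96 in assay medium with 5 mM galactose, 5 mM pyruvate and 4 mM glutamine, then corrected for Hoechst cell number and expressed as a Z score […]. Compounds that cut cell number by >66% were excluded. Two repeats.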

This note sets out measurements from the supplement of paper PMC4962491.

± gives the standard deviation of the averaged measurements. The list shows a part of the results, in another mix than the full data. Most values lie within the scatter of the assay; repeated measurements hardly agree.

On to `CC(=O)N(CC(O)CN(C(C)=O)c1c(I)c(C(=O)NCC(O)CO)c(I)c(C(=O)NCC(O)CO)c1I)c1c(I)c(C(=O)NCC(O)CO)c(I)c(C(=O)NCC(O)CO)c1I` (stereo not given), for which the “mitochondrial oxygen consumption rate normalised” value (2 µM) was -0.949 ± 0.26. For `NC(=O)NS(=O)(=O)c1ccc(N)cc1`, the “mitochondrial oxygen consumption rate normalised” value runs as follows: (2 µM) 0.341 ± 0.35; (10 µM) 0.826 ± 1.4.

`COc1cc(/C=C/C(=O)N2CCCCCCC2)cc(OC)c1OC`: the “mitochondrial oxygen consumption rate normalised” value (2 µM) is 0.574 ± 1.4. Consider `c1ccc(CN(CC2=NCCN2)c2ccccc2)cc1`, for which the “mitochondrial oxygen consumption rate normalised” value (2 µM) turned out to be 0.182 ± 0.19.

Consider `Cc1cc(-c2ccc(/N=N/c3ccc4c(S(=O)(=O)O)cc(S(=O)(=O)O)c(N)c4c3O)c(C)c2)ccc1/N=N/c1ccc2c(S(=O)(=O)O)cc(S(=O)(=O)O)c(N)c2c1O`, for which the “mitochondrial oxygen consumption rate normalised” value was found to be 1.16 ± 1.9 (2 µM) and 1.24 ± 1 (10 µM). As for `C=CCSCC1Nc2cc(Cl)c(S(N)(=O)=O)cc2S(=O)(=O)N1` (stereo not given), the “mitochondrial oxygen consumption rate normalised” value (2 µM) was -0.309 ± 0.027. The same measure, in the same setting: the figure for `CC(=O)Oc1cccc(C)c1` [meta-CRESYL ACETATE] is -0.297 ± 0.76; for `CC(C)(O)c1ccccc1CC[C@@H](SCC1(CC(=O)O)CC1)c1cccc(/C=C/c2ccc3ccc(Cl)cc3n2)c1` it is -0.46 ± 0.65. Regarding `CCN[C@@H]1C[C@H](N)[C@@H](O[C@H]2OC(CN)=CC[C@H]2N)[C@H](O)[C@H]1O[C@H]1OC[C@](C)(O)[C@H](NC)[C@H]1O`, the “mitochondrial oxygen consumption rate normalised” value (2 µM) is -0.0868 ± 0.95 and the “mitochondrial oxygen consumption rate normalised” value (10 µM) came to 1.16 ± 0.38. With `FC(F)(F)COCC(F)(F)F`, where the note is “2 µM”, the “mitochondrial oxygen consumption rate normalised” value was found to be 0.546 ± 1.1.

Take `OCc1ccccc1O`: the “mitochondrial oxygen consumption rate normalised” value (2 µM) was -0.454 ± 0.27. Still for that read-out and setting: the figure for `O=C(c1ccccc1)c1ccc2n1CCC2C(=O)O` (stereo not given) is 0.497 ± 1.9; for `COc1c(N2CCNC(C)C2)c(F)cc2c(=O)c(C(=O)O)cn(C3CC3)c12` (stereo not given) it is -0.825 ± 0.97; for `C#CCC(Cc1cnc2nc(N)nc(N)c2n1)c1ccc(C(=O)N[C@@H](CCC(=O)O)C(=O)O)cc1` (stereo not given in full) [Pralatrexate] it is 2.39 ± 1.1.

`NC(=O)[C@@H]1CCCN1C(=O)[C@H](Cc1c[nH]cn1)NC(=O)[C@@H]1CCC(=O)N1`: under “2 µM”, the “mitochondrial oxygen consumption rate normalised” value is -0.0448 ± 0.54. As for `CN(C)CC(c1ccc(O)cc1)C1(O)CCCCC1` (stereo not given), the “mitochondrial oxygen consumption rate normalised” value (2 µM) is 0.379 ± 0.24. For `CO/N=C(\C(=O)N[C@@H]1C(=O)N2C(C(=O)OC(C)OC(C)=O)=C(COC(N)=O)CS[C@H]12)c1ccco1` (stereo not given in full), the “mitochondrial oxygen consumption rate normalised” value (2 µM) was 0.434 ± 0.5. The same measure, in the same setting: next, `Cc1cc(N)c2ccccc2[n+]1CCCCCCCCCC[n+]1c(C)cc(N)c2ccccc21`: -1.13 ± 0.53; `Nc1ccn([C@@H]2CS[C@H](CO)O2)c(=O)n1`: 0.445 ± 0.25.

As to `COc1ccccc1OCC(O)COC(N)=O` (stereo not given), the “mitochondrial oxygen consumption rate normalised” value (2 µM) stood at 0.2 ± 0.04. Still for that read-out and setting: the figure for `COC(=O)Nc1nc2cc([S+]([O-])c3ccccc3)ccc2[nH]1` (stereo not given) is 0.342 ± 0.82; for `C=CCCCCCCCCC(=O)[O-].C=CCCCCCCCCC(=O)[O-].[Zn+2]` it is 1.02 ± 0.65; for `CCNC(=O)/C=C/c1cccc(Br)c1` it is 0.616 ± 0.51. Turning to `CC(COc1ccccc1)NC(C)C(O)c1ccc(O)cc1` (stereo not given), where the note is “2 µM”, the “mitochondrial oxygen consumption rate normalised” value is -1.38 ± 0.41.

Consider `CC(C)(C)c1ccc(C(O)CCCN2CCC(C(O)(c3ccccc3)c3ccccc3)CC2)cc1` (stereo not given), for which the “mitochondrial oxygen consumption rate normalised” value (2 µM) came to 0.318 ± 2.3. Still for that read-out and setting: the figure for `CC[C@@H](C(=O)[C@@H](C)[C@@H](O)[C@H](C)CCc1ccc(C)c(O)c1C(=O)O)[C@H]1O[C@](CC)([C@H]2CC[C@](O)(CC)[C@H](C)O2)C[C@@H]1C` is -0.744 ± 1.4; for `CCOC(=O)NNc1nncc2ccccc12` it is -0.22 ± 0.35; for `CCCCN1CCCCC1C(=O)Nc1c(C)cccc1C` (stereo not given) it is 0.299 ± 1.8. As for `CO/N=C1\C[C@]2(C[C@@H]3C[C@@H](C/C=C(\C)C[C@@H](C)/C=C/C=C4\CO[C@@H]5[C@H](O)C(C)=C[C@@H](C(=O)O3)[C@]45O)O2)O[C@H](/C(C)=C/C(C)C)[C@H]1C`, the “mitochondrial oxygen consumption rate normalised” value is, setting by setting: (2 µM) 0.853 ± 0.57; (10 µM) -0.513 ± 0.34. As to `CCN(CCO)CCCC(C)Nc1ccnc2cc(Cl)ccc12` (stereo not given), the “mitochondrial oxygen consumption rate normalised” value (2 µM) was -0.143 ± 0.39.

Regarding `CC(=O)[C@H]1CC[C@H]2[C@@H]3CC=C4C[C@@H](O)CC[C@]4(C)[C@H]3CC[C@]12C`, the “mitochondrial oxygen consumption rate normalised” value (2 µM) is 1.07 ± 1.
